Experimental data: publication PMC7053340
These are yes or no findings as the source states them, for the method shown. In cells and extracts the contact can be indirect. Some results given as binding are weak or reduced against the parent protein; the word gives no strength.

By UniProt entry, the sequences of proteins in these tests, tags left out.
UniProt P05412: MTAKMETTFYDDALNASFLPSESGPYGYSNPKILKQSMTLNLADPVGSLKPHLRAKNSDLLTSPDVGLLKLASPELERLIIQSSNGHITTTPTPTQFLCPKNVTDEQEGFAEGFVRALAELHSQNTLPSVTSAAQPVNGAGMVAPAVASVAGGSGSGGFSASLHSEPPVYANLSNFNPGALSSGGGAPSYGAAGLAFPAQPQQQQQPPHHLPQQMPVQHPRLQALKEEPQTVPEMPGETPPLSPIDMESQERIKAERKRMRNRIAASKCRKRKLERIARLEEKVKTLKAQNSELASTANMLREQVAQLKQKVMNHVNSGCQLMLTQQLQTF

Assays:
[1] = molecular target: Flag-CtBP2 (C-terminal-binding protein 2, from pcDNA3-2×Flag-CtBP2) (human) (UniProt P56545); test: co-IP; Flag-tagged and Myc-tagged plasmids co-transfected into HC-OA cells, 48 h, lysed, anti-Flag agarose and anti-c-Myc agarose 4°C 2 h, four washes with 1×RIPA; blots with anti-Flag and anti-Myc
[2] = molecular target: Flag-p300 (histone acetyltransferase p300, from pCDNA3-2×Flag-p300) (UniProt Q09472); test: as above
[3] = molecular target: Flag-CtBP2 (C-terminal-binding protein 2, from pcDNA3-2×Flag-CtBP2) (human) (UniProt P56545); test: co-IP; HC-OA cells transfected with pcDNA3-2×Flag-CtBP1 or -CtBP2, lysed in 1×RIPA buffer with protease inhibitors, anti-Flag agarose 4°C 2 h, four washes with 1×RIPA; blots with anti-p300, anti-c-Jun, anti-c-FOS, anti-CtBP1, anti-CtBP2; repeated in p300-KD cells (much less p300 and AP1 subunits pulled down)

Substance	binding [1]	binding [2]	binding [3]
Myc-c-FOS (AP1 subunit, from pCDNA3-6×Myc-c-FOS) (from UniProt P01100 1-380)	no binding	binds	
Myc-c-Jun (AP1 subunit, from pCDNA3-6×Myc-c-Jun) (from UniProt P05412 1-331)		binds	
Myc-p300 (histone acetyltransferase p300, from pCDNA3-6×Myc-p300) (from UniProt Q09472 1-2414)	binds		
p300 (histone acetyltransferase p300), endogenous (from UniProt Q09472 1-2414)			binds
